These results are taken from article PMC4728403.

The target of the assay is T1, Escherichia coli phosphatidylglycerol:prolipoprotein diacylglyceryl transferase (Lgt), C-terminal His6-tag (E. coli) (UniProt P60955).
T1 sequence: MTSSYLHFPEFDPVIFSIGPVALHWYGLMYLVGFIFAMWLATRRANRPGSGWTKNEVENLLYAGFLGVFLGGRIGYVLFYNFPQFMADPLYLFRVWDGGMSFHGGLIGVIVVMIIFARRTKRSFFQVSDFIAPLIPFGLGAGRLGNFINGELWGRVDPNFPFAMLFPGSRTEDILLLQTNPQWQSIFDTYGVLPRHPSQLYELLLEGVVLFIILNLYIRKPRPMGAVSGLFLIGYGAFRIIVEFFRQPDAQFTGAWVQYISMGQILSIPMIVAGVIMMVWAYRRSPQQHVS
Briefly: pull-down; His6-tagged Lgt held on Cobalt resin, incubated 30 min with excess (~100 uM) lipoGFP; washed three times with 20 mM Tris-HCl pH 8.0, 300 mM NaCl, 10% glycerol, 0.6% OG, 15 mM imidazole; resin on SDS-PAGE, GFP fluorescence; both purified.

These are yes or no findings as the source states them, for the method shown. Some binding calls cover weakened binding; strength is not graded here. Sequences can lack the tags named with a protein.

Turning to MKATKLVLGAVILGSTLLAGCSSN (diacylglyceryl on the lipobox cysteine (C21)) [diacylglyceryl-modified lipoGFP (Lpp24-GFP, product of Lgt)], the binding entry was “binds”.
